According to PubChem BioAssay AID1794845 (National Center for Advancing Translational Sciences (NCATS), 2023):
Hit rate of the full screen: of about 6,900 compounds, fewer than 10 were called active. Calls come from the whole dose curve; as a rule, active = well fitted curve in the direction sought with a large enough effect; inconclusive = small, poorly fitted or top-dose-only effect, or another doubt; inactive = no such curve, though single readings can be large or run the other way. Some of the results follow.

By UniProt entry, the sequences of proteins in these tests, tags left out. Where a name states a change or a piece, a line headed by the entry shows the natural chain unless it says otherwise.
UniProt C7C422: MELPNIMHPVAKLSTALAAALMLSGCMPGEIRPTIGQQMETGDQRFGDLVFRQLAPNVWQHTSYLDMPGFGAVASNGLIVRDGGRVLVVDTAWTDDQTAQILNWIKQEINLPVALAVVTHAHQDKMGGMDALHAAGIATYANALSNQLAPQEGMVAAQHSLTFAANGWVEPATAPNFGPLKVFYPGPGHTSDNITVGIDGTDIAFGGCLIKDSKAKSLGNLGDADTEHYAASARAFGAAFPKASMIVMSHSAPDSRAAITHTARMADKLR

What follows are compounds tested against Metallo-beta-lactamase type 2 (Klebsiella pneumoniae) (UniProt C7C422) (assay: qHTS to identify inhibitors of the New Delhi Metallo-beta-lactamase (NDM): primary screen against the NCATS Gemini Collection). Conditions: NDM-1 enzyme, meropenem hydrolysis, absorbance 300 nm; at 38.4 µM (top of the series) unless noted.
Method in brief: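 Meropenem hydrolysis (50 uM final) by 2 nM NDM-1 read as 300 nm absorbance after 30 min, following >30 min compound–enzyme preincubation in HEPES pH 7.0 with 1 uM ZnSO4 and 0.01% Tween20.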
Note: % of control where 0% means no effect.

Activity % (negative = inhibition), inactive:
O=C(NC1CCCC1)N[C@@H]1C[C@H](Cn2cc(C3CC3)nn2)[C@@H](O)[C@H]1O 22.7% [at 57.5 µM], CCc1nc(C)c(C(=O)N2CC[C@@](O)(COC)C(C)(C)C2)s1 5.18%, O=C(c1cccs1)N1CC[C@H]2COC(=O)N2c2cc(F)ccc2C1 -0.338% [at 57.5 µM], COc1ccccc1CC(=O)Nc1cccn2nc(C(C)C)nc12 4.57%, O=S(=O)(Cc1ccccc1)N1CCCC(Cc2noc(-c3cccnc3)n2)C1 (centres undefined) 1.01%, O=C(CC1CCCC1)N1CC2CC(C1)[C@H]1CCCC(=O)N1C2 (some centres undefined) -2.15%, Cc1nc(NCCn2ncc3ccccc3c2=O)cc(C2CC(O)C2)n1 (centres undefined) -1.52%, Cc1ccc([C@@H]2CN(C(=O)c3c(-c4ccccc4)noc3C)C[C@H]2N(C)C)cc1 3.5%, CC(C)(C)C(=O)N1CCC(N2CCCC(C(=O)NCc3ccccc3)C2)CC1 (centres undefined) 0.229%, Cc1ccc2c(c1)N(CC(=O)N1[C@@H]3CC[C@H]1CNC(=O)C3)C(=O)CO2 25.6%, O=C1NCCOCCCN(C(=O)NCCc2ccccc2)[C@H]2CCCC[C@@H]12 7.97%, Cc1ccc(C(=O)N2CCCCCCNC(=O)[C@@H]3C[C@@H](c4nc(Cc5ccccc5)no4)C[C@@H]32)s1 0.811%, O=C(O)C(c1ccc2c(c1)OCCO2)N1CCCN(c2ncccn2)CC1 (centres undefined) -2.88%, O=C(O)c1ccc(CN2CCC[C@H]2c2nc(-c3ccc(F)cn3)no2)cc1 17% [at 57.5 µM], CN1CC[C@H]2CN(C(=O)C3(Cn4ccnc4)CC3)C[C@@]2(C(=O)O)C1 3.04%, O=C(c1cn(C2CNC2)nn1)N1CCOCC1 -7.99%, COCCN1CC(C(=O)NCCOc2ccccc2)CCC1=O (centres undefined) 2.59%, CC(=O)N[C@@H]1CCNC[C@@H]1c1nc(-c2ccccc2)no1 0.382%, c1ccc(-c2cc3c(cn2)NCCN(Cc2ccccn2)C3)cc1 16.8% [at 57.5 µM], O=C1c2cccnc2OC(COc2ccccc2)CN1Cc1cccs1 (centres undefined) 5.15% [at 16.1 µM], Cn1nc(C2CCCN2)c2c(C(=O)N3CCOCC3)cc(C3CC3)nc21 (centres undefined) 4.87%, CCC(C)NC(=O)Cn1nc(C)c2sc(-c3ccccc3)nc2c1=O (centres undefined) -0.811%, CCCCS(=O)(=O)N1CCC(F)(c2nc(-c3ccccc3)no2)CC1 0.41%, COc1cccc(-c2ccc(C(=O)N3CCC(NC(=O)N(C)C)CC3)cc2)c1 0.185%, COc1ccc(C(=O)N2CCC(N3CCCC3=O)CC2)cc1 -2.85% [at 57.5 µM], O=S(=O)(c1cc(F)ccc1F)N1CCC(n2cc(CCCO)nn2)CC1 5.41%, O=C(c1ccc2ccccc2n1)N1C[C@@H](CO)[C@H](c2ccncc2)C1 0.775%, O=C(NCCOc1ccccc1)[C@@H]1C[C@H](c2ccc(F)cc2)N([S+](=O)([O-])C2CC2)C1 11.5% [at 57.5 µM], CC(O)c1cc2n(n1)CCN(S(=O)(=O)c1ccc3c(c1)NC(=O)CO3)C2 (centres undefined) 10.2%, COCCOCc1nc(C2CCN(C(=O)Nc3ccc(C(=O)OC)cc3)CC2)no1 9.06%, CC(C)CCN1CCC2(CC1)COc1ccccc1C(=O)N2 -1.82% [at 57.5 µM], CC(C)CNC(=O)c1cc(-c2ccsc2)nc2c1cnn2C 84.3% [at 57.5 µM], COCC1CCN(CC2(O)CCCN(Cc3cccc(F)c3F)C2=O)CC1 (centres undefined) 37.3%, O=C(CC[C@H]1NC(=O)c2ccccc2NC1=O)Nc1nnc(C2CC2)s1 4.25%, Cc1nnc([C@@H]2CC(F)(F)CN2C(=O)c2cccc3[nH]ccc23)o1 18.1%, O=C(Nc1ccccc1)NC1CCCN(c2ccc3nnc(-c4ccccc4)n3n2)C1 (centres undefined) -0.527%, COC(=O)c1ccccc1NC(=O)Cn1nc2n(c1=O)CCCCC2 1.95%, Cc1nc2c(OCC(=O)OC(C)(C)C)cccn2c(=O)c1-c1cc(C)n(-c2cccc(F)c2)n1 9.08%, COc1ccc(S(=O)(=O)N2CCc3c(C(=O)NCc4ccncc4)cccc32)cc1 4.27%, O=C(NCC1CN(CC2CC2)CC12CN(c1ccccc1)C2)Nc1ccccc1 (centres undefined) -0.723% [at 57.5 µM], COc1ccc(CC(=O)Nc2ccc(N3CCC(NCCc4c(C)n[nH]c4C)CC3)cc2)cc1 4.42%, COc1ccc(CNC(=O)c2ccc(CN3C(=O)NC4(CCOCC4)C3=O)cc2)cc1 0.871%, CC(=O)N1Cc2ccccc2NC(=O)C12CCNCC2 0.554%, CCOCCn1nc(C)cc1C(=O)N1CC(C)(C)[C@@](C)(O)C1 -0.494%, COc1cccc(-c2cccc(C(=O)N3CCN(C(=O)Cc4cccc(Cl)c4)CC3)c2)c1 8.63%, COc1ccc(C(=O)N[C@@H]2c3ccccc3C3(CCNCC3)[C@H]2OC)c(C)c1 -0.104%, O=C1CCN(Cc2ccncc2)CCCC(CO)CCN1 (centres undefined) -7.81%, CCOC(=O)C1CCCN(C(=O)C2CC(c3ccc(F)c(C)c3)CN(C(=O)NC(C)C)C2)C1 (centres undefined) 27%, Cc1noc(C)c1S(=O)(=O)N(C)C1CCOc2ccccc21 (centres undefined) 2.54% [at 57.5 µM], COC[C@H]1C[C@@H](NCc2cccc3c2OCO3)[C@H](O)[C@@H]1O 1.23% [at 57.5 µM], COc1cccc(NC(=O)CCC2CCN(C(=O)C(C)n3cncn3)CC2)c1 (centres undefined) -2.79%, O=C(NCc1nc(-c2cccc(F)c2)c(-c2ccccn2)[nH]1)C1CCOC1 (centres undefined) 18.2%, COc1cccc(CN2CCCC(O)(CN3CCC(C)CC3)C2=O)c1 (centres undefined) 7.84%, COC(=O)N(C)Cc1cccc(N2CCN(C(=O)OC(C)(C)C)CC2)c1F -0.0329%, COc1ccc(CCC(=O)N2CCCC(c3nc(-c4ccccc4)no3)CCNC(=O)CC2)cc1 (centres undefined) -2.67%, Cc1noc([C@H]2CCN(CC3CC3)C[C@H]2NC(=O)C2CCOCC2)n1 -1.44%, Cc1nc(N2CCC(NC(=O)c3sccc3C)CC2)cc(C(F)(F)F)n1 10.5%, O=C(c1ccoc1)N1CCCC(n2cc(-c3nc(C4CC4)no3)nn2)C1 (centres undefined) 1.24%, COCCN1CCC(C(=O)N2CCn3nc(Cc4ccccc4)cc3C2)C1 (centres undefined) -1.03%, COC(=O)CNC(=O)c1cc(-c2cccnc2)c2nncn2n1 14.3%, Cc1ccc(CN2C(=O)OC(c3cccc(NC(=O)c4ccc(F)cc4)c3)C2C(=O)NC2CC2)cc1 (centres undefined) 81.1%, NC(=O)[C@H]1C[C@@H](O)[C@H](O)[C@H]2[C@@H]1SC(=Nc1ccc(Cl)cc1)N2CC1CCCCC1 1.94%, CCOCCOc1cccc(C(=O)N2C[C@@H](N(C)C)[C@H](C(C)C)C2)c1 58.5%, O=C(c1ccccc1F)N1CC2(C1)C(=O)Nc1ccccc12 -0.528% [at 57.5 µM], CC1(COCC2CC2)COc2ccc(C(=O)Nc3cccc([S+](C)(=O)[O-])c3)cc2N1 (centres undefined) -0.683% [at 57.5 µM], COc1ccc(O[C@H]2COCCN(C(=O)C3CCCC3)C2)cc1 19.2% [at 57.5 µM], COCCN1C(=O)c2ccccc2C(C(=O)NCc2ccc(Cl)cc2)C12CCCC2 (centres undefined) 3.33%, Cc1nn2c(c1-c1ccccc1N1CCCC1)N(C(=O)C1CCOCC1)CCC2 16.9% [at 57.5 µM], O=C(C1CCOC1)N1CCC(C(=O)O)(n2ccc(-c3ccco3)n2)CC1 (centres undefined) 45.8%, CC(=O)NC(CO)C(=O)N1CCc2c(nc(-c3cccnc3)nc2N(C)C)C1 (centres undefined) 12.6%, O=C(c1ccoc1)N1CCC(Nc2cccnc2)C1 (centres undefined) -0.493%, CC(C)C(=O)N1CCC2(CCCCO2)CC1 -3.79%, Cc1ccsc1-c1[nH]nc2ncc(-c3ccccc3O)nc12 34.1% [at 57.5 µM], CN(C(=O)c1ccc2oc(Cc3ccc(Cl)cc3)nc2c1)[C@H]1COC[C@@H]1O 0.285%, COC[C@H]1NC(=O)CC[C@H]1C(=O)NC1CCN(Cc2ccccc2)CC1 2.52%, O=C(O)C1CCc2nnc(C3CCN(C(=O)c4ccccc4)C3)n21 (centres undefined) 0.485%, CCn1ncc(CN2CCCCCCNC(=O)[C@@H]3CCC[C@@H]32)c1C -6.9%, O=C1Nc2ccccc2C12CN(Cc1ccc(C(F)(F)F)cc1)C2 -2.37%, N[C@H]1CN(c2cncc(C(=O)N3CCCCC3)n2)C[C@@H]1C1CC1 0.523%, COC(=O)[C@H](CC1CCCCC1)NC(=O)[C@@H]1C[C@@H](NC(=O)Nc2cccc(F)c2)CCN1C(=O)CCC(=O)O -4.66%, COCCNC(=O)[C@@H](C)C1CCc2c(C)cc(OC)c(C)c2[C@@H]1O (some centres undefined) 16.1% [at 57.5 µM], COC1CCC12CCN(Cc1ccc(F)c(F)c1)CC2 (centres undefined) 2%, N#Cc1ccc(CN2CCC(N3CCOC3=O)CC2)cc1 22.7% [at 57.5 µM], Cc1ccc(-c2nc(CNS(=O)(=O)C3CC3)[nH]c2-c2ccccn2)cc1 88.7%
